# Test results reported in the supplement of paper PMC8728848.
# The other results are listed elsewhere or left out.
# Experiments:
# Assay in all cases: glycan array binding signal (z-score within array); higher = stronger binding
# Conditions in all cases: glycan notation: IUPAC condensed, linker removed
# Neu5Ac(a2-3)Gal(b1-4)Glc = target: Neu5Ac(a2-3)Gal(b1-4)Glc
# Method in brief: (§1)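 Columns mapping to the same glycan were averaged after glycan names were converted to IUPAC-condensed notation. The data come from 3228 arrays in the Consortium for Functional Glycomics database, limited to those with an available protein sequence. Binding is reported as a within-array Z-score averaged across arrays of one protein sequence and across linkers.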
# [1] = target: Neu5Ac(a2-3)Gal(b1-4)GlcNAc
# Method in brief: as §1
# [2] = target: Neu5Ac(a2-3)Gal(b1-4)GlcNAc(b1-2)Man(a1-3)[GlcNAc(b1-2)Man(b1-4)GlcNAc(b1-2)Man(a1-6)]Man(b1-4)GlcNAc(b1-4)GlcNAc
# Method in brief: as §1
# [3] = target: Neu5Ac(a2-3)Gal(b1-4)GlcNAc(b1-2)Man(a1-3)[Neu5Ac(a2-6)Gal(b1-4)GlcNAc(b1-2)Man(a1-6)]Man(b1-4)GlcNAc(b1-4)GlcNAc
# Method in brief: as §1
# [4] = target: Neu5Ac(a2-3)Gal(b1-4)GlcNAc(b1-3)Gal(b1-3)GlcNAc
# Method in brief: as §1
# [5] = target: Neu5Ac(a2-3)Gal(b1-4)GlcNAc(b1-3)Gal(b1-4)GlcNAc
# Method in brief: as §1
# [6] = target: Neu5Ac(a2-3)Gal(b1-4)GlcNAc(b1-3)Gal(b1-4)GlcNAc(b1-3)Gal(b1-4)GlcNAc
# Method in brief: as §1
# [7] = target: Neu5Ac(a2-3)Gal(b1-4)GlcNAc(b1-3)Gal(b1-4)[Fuc(a1-3)]GlcNAc
# Method in brief: as §1
# [8] = target: Neu5Ac(a2-3)Gal(b1-4)GlcNAc(b1-3)GalNAc
# Method in brief: as §1
# [9] = target: Neu5Ac(a2-3)Gal(b1-4)GlcNAc(b1-6)[Gal(b1-3)]GalNAc
# Method in brief: as §1
# [10] = target: Neu5Ac(a2-3)Gal(b1-4)GlcNAc(b1-6)[Neu5Ac(a2-3)Gal(b1-3)]GalNAc
# Method in brief: as §1
# [11] = target: Neu5Ac(a2-3)Gal(b1-4)GlcNAc6S
# Method in brief: as §1
# [12] = target: Neu5Ac(a2-3)Gal(b1-4)[Fuc(a1-3)]GlcNAc
# Method in brief: as §1
# [13] = target: Neu5Ac(a2-3)Gal(b1-4)[Fuc(a1-3)]GlcNAc(b1-3)Gal
# Method in brief: as §1
# [14] = target: Neu5Ac(a2-3)Gal(b1-4)[Fuc(a1-3)]GlcNAc(b1-3)Gal(b1-4)GlcNAc
# Method in brief: as §1
# [15] = target: Neu5Ac(a2-3)Gal(b1-4)[Fuc(a1-3)]GlcNAc(b1-3)Gal(b1-4)[Fuc(a1-3)]GlcNAc(b1-3)Gal(b1-4)[Fuc(a1-3)]GlcNAc
# Method in brief: as §1
# [16] = target: Neu5Ac(a2-3)Gal(b1-4)[Fuc(a1-3)]GlcNAc(b1-3)GalNAc
# Method in brief: as §1
# [17] = target: Neu5Ac(a2-3)Gal(b1-4)[Fuc(a1-3)]GlcNAc(b1-6)[Gal(b1-3)]GalNAc
# Method in brief: as §1
# [18] = target: Neu5Ac(a2-3)Gal(b1-4)[Fuc(a1-3)]GlcNAc(b1-6)[Neu5Ac(a2-3)Gal(b1-3)]GalNAc
# Method in brief: as §1
# [19] = target: Neu5Ac(a2-3)Gal(b1-4)[Fuc(a1-3)]GlcNAc6S
# Method in brief: as §1
# [20] = target: Neu5Ac(a2-3)Gal6S(b1-4)GlcNAc
# Method in brief: as §1
# [21] = target: Neu5Ac(a2-3)Gal6S(b1-4)[Fuc(a1-3)]GlcNAc
# Method in brief: as §1
# Neu5Ac(a2-3)GalNAc = target: Neu5Ac(a2-3)GalNAc
# Method in brief: as §1
# [22] = target: Neu5Ac(a2-3)GalNAc(b1-4)GlcNAc
# Method in brief: as §1
# [23] = target: Neu5Ac(a2-3)[GalNAc(b1-4)]Gal(b1-4)Glc
# Method in brief: as §1
# [24] = target: Neu5Ac(a2-3)[GalNAc(b1-4)]Gal(b1-4)GlcNAc
# Method in brief: as §1
# [25] = target: Neu5Ac(a2-3)[GalNAc(b1-4)]Gal(b1-4)GlcNAc(b1-3)GalNAc
# Method in brief: as §1
# [26] = target: Neu5Ac(a2-3)[Neu5Ac(a2-6)]GalNAc
# Method in brief: as §1
# Neu5Ac(a2-6)Gal = target: Neu5Ac(a2-6)Gal
# Method in brief: as §1
# Neu5Ac(a2-6)Gal(b1-4)Glc = target: Neu5Ac(a2-6)Gal(b1-4)Glc
# Method in brief: as §1
# [27] = target: Neu5Ac(a2-6)Gal(b1-4)GlcNAc
# Method in brief: as §1
# [28] = target: Neu5Ac(a2-6)Gal(b1-4)GlcNAc(b1-2)Man(a1-3)Man(b1-4)GlcNAc(b1-4)GlcNAc
# Method in brief: as §1
# [29] = target: Neu5Ac(a2-6)Gal(b1-4)GlcNAc(b1-2)Man(a1-3)[Gal(b1-4)GlcNAc(b1-2)Man(a1-6)]Man(b1-4)GlcNAc(b1-4)GlcNAc
# Method in brief: as §1
# [30] = target: Neu5Ac(a2-6)Gal(b1-4)GlcNAc(b1-2)Man(a1-3)[GlcNAc(b1-2)Man(a1-6)]Man(b1-4)GlcNAc(b1-4)GlcNAc
# Method in brief: as §1
# [31] = target: Neu5Ac(a2-6)Gal(b1-4)GlcNAc(b1-2)Man(a1-3)[GlcNAc(b1-2)Man(b1-4)GlcNAc(b1-2)Man(a1-6)]Man(b1-4)GlcNAc(b1-4)GlcNAc
# Method in brief: as §1
# [32] = target: Neu5Ac(a2-6)Gal(b1-4)GlcNAc(b1-2)Man(a1-3)[Man(a1-6)]Man(b1-4)GlcNAc(b1-4)GlcNAc
# Method in brief: as §1
# [33] = target: Neu5Ac(a2-6)Gal(b1-4)GlcNAc(b1-2)Man(a1-3)[Neu5Ac(a2-6)Gal(b1-4)GlcNAc(b1-2)Man(a1-6)]Man(b1-4)GlcNAc(b1-4)GlcNAc
# Method in brief: as §1
# [34] = target: Neu5Ac(a2-6)Gal(b1-4)GlcNAc(b1-2)Man(a1-6)Man(b1-4)GlcNAc(b1-4)GlcNAc
# Method in brief: as §1
# [35] = target: Neu5Ac(a2-6)Gal(b1-4)GlcNAc(b1-2)Man(a1-6)[Gal(b1-4)GlcNAc(b1-2)Man(a1-3)]Man(b1-4)GlcNAc(b1-4)GlcNAc
# Method in brief: as §1
# [36] = target: Neu5Ac(a2-6)Gal(b1-4)GlcNAc(b1-2)Man(a1-6)[GlcNAc(b1-2)Man(a1-3)]Man(b1-4)GlcNAc(b1-4)GlcNAc
# Method in brief: as §1
# [37] = target: Neu5Ac(a2-6)Gal(b1-4)GlcNAc(b1-2)Man(a1-6)[Man(a1-3)]Man(b1-4)GlcNAc(b1-4)GlcNAc
# Method in brief: as §1
# [38] = target: Neu5Ac(a2-6)Gal(b1-4)GlcNAc(b1-3)Gal(b1-3)GlcNAc
# Method in brief: as §1
# [39] = target: Neu5Ac(a2-6)Gal(b1-4)GlcNAc(b1-3)Gal(b1-4)GlcNAc
# Method in brief: as §1
# [40] = target: Neu5Ac(a2-6)Gal(b1-4)GlcNAc(b1-3)Gal(b1-4)GlcNAc(b1-3)Gal(b1-4)GlcNAc
# Method in brief: as §1
# [41] = target: Neu5Ac(a2-6)Gal(b1-4)GlcNAc(b1-3)Gal(b1-4)[Fuc(a1-3)]GlcNAc(b1-3)Gal(b1-4)[Fuc(a1-3)]GlcNAc
# Method in brief: as §1
binder,measurement,setting,value
"SBD (Rhizopus oryzae), P07683 (protein) ASIPSSASVQLDSYNYDGSTFSGKIYVKNIAYSKKVTVVYADGSDNWNNNGNIIAASFSGPISGSNYEYWTFSASVKGIKEFYIKYEVSGKTYYDNNNSANYQVS",glycan array binding signal (z-score),Neu5Ac(a2-3)Gal(b1-4)Glc,0.031
same,glycan array binding signal (z-score),[1],-0.182
same,glycan array binding signal (z-score),[2],-0.81
same,glycan array binding signal (z-score),[3],0.006
same,glycan array binding signal (z-score),[4],-0.81
same,glycan array binding signal (z-score),[5],-0.264
same,glycan array binding signal (z-score),[6],-0.668
same,glycan array binding signal (z-score),[7],-0.067
same,glycan array binding signal (z-score),[8],0.14
same,glycan array binding signal (z-score),[9],0.031
same,glycan array binding signal (z-score),[10],-0.106
same,glycan array binding signal (z-score),[11],0.394
same,glycan array binding signal (z-score),[12],-0.06
same,glycan array binding signal (z-score),[13],-0.484
same,glycan array binding signal (z-score),[14],0.692
same,glycan array binding signal (z-score),[15],-0.212
same,glycan array binding signal (z-score),[16],3.37
same,glycan array binding signal (z-score),[17],0.545
same,glycan array binding signal (z-score),[18],0.027
same,glycan array binding signal (z-score),[19],-0.361
same,glycan array binding signal (z-score),[20],0.019
same,glycan array binding signal (z-score),[21],-0.264
same,glycan array binding signal (z-score),Neu5Ac(a2-3)GalNAc,0.062
same,glycan array binding signal (z-score),[22],-0.492
same,glycan array binding signal (z-score),[23],-0.178
same,glycan array binding signal (z-score),[24],-0.386
same,glycan array binding signal (z-score),[25],-0.886
same,glycan array binding signal (z-score),[26],-0.576
same,glycan array binding signal (z-score),Neu5Ac(a2-6)Gal,-0.115
same,glycan array binding signal (z-score),Neu5Ac(a2-6)Gal(b1-4)Glc,-0.241
same,glycan array binding signal (z-score),[27],-0.304
same,glycan array binding signal (z-score),[28],0.242
same,glycan array binding signal (z-score),[29],-0.457
same,glycan array binding signal (z-score),[30],-0.28
same,glycan array binding signal (z-score),[31],-0.042
same,glycan array binding signal (z-score),[32],-0.284
same,glycan array binding signal (z-score),[33],0.329
same,glycan array binding signal (z-score),[34],-0.232
same,glycan array binding signal (z-score),[35],0.228
same,glycan array binding signal (z-score),[36],0.349
same,glycan array binding signal (z-score),[37],0.365
same,glycan array binding signal (z-score),[38],-0.481
same,glycan array binding signal (z-score),[39],-0.661
same,glycan array binding signal (z-score),[40],0.625
same,glycan array binding signal (z-score),[41],-0.291

# Some of the entries above in a different format.
binder	measurement	setting	value
SBD (Rhizopus oryzae), P07683 (protein) ASIPSSASVQLDSYNYDGSTFSGKIYVKNIAYSKKVTVVYADGSDNWNNNGNIIAASFSGPISGSNYEYWTFSASVKGIKEFYIKYEVSGKTYYDNNNSANYQVS	glycan array binding signal (z-score)	[28]	0.242
same	glycan array binding signal (z-score)	[29]	-0.457
